This is one part of the list. The main result of the screen is listed elsewhere. These columns were measured beside it and carry no call. Most of these compounds were active or inconclusive in the main read-out, so they are no random draw. The note in brackets gives the kind of curve behind each potency; many fits are weak.

This assay is described as follows: Cell signaling CRE-BLA (Fsk stim). Particulars: CHO CRE-bla reporter (cAMP response element driving beta-lactamase), forskolin EC10, beta-lactamase ratio; measured here: 460 nm blue channel. In outline: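 Beta-lactamase reporter under a cAMP responsive element in CHO cells; compounds tested in titration series against EC10 NKH 477, 3 h at 37 °C. Read-out: CCF4 FRET ratio 460nm/530nm (excitation 405nm) giving %Activity, fitted to AC50.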
In the case of `CCCCSc1nnc(-c2ccc(C)cc2)o1`, the AC50 was 0.631 µM [rising, partial curve, poor fit].
The value for `O=C(NCCN1CCOCC1)c1cccc(Cl)c1` was 25.1 µM [rising, single point].
In the case of `O=C(c1cnn2c(C(F)F)cc(-c3ccccc3)nc12)N1CCN2CCCC2C1` (stereo not drawn), the AC50 is 25.1 µM [rising, single point].
As for `COc1ccc(S(=O)(=O)n2nc(-c3cc(OC)c(OC)c(OC)c3)cc2N)cc1OC`, the figure is 10 µM [rising, partial curve]; as for `O=S(=O)(NCc1cccs1)c1cccc2cccnc12`, 0.398 µM [falling, partial curve, poor fit]; as for `COc1ccc(-c2n[nH]c(C)c2-c2ccc(Cl)cc2)c(O)c1OC`, 12.6 µM [falling, partial curve, poor fit].
For `c1ccc(-n2nnnc2-n2nnc3ccccc32)cc1`, the AC50 was 5.01 µM [falling, single point].
As for `Cc1cccc(N2CCN(C(=O)C3CCN(S(=O)(=O)c4cccc5nsnc45)CC3)CC2C)c1` (stereo not drawn), the figure is 0.00398 µM [falling, full curve, poor fit]; as for `CC(C)(C)NC(=O)CN(Cc1cccnc1)C(=O)c1csnn1`, 20 µM [falling, single point].
As for `CCCCCCC(=O)N1CCC(c2nc3c(nnn3Cc3ccccc3Cl)c(=O)[nH]2)CC1`, the figure is 3.16 µM [rising, partial curve]; as for `COc1ccccc1C1SCCN1S(C)(=O)=O` (stereo not drawn), 6.31 µM [falling, partial curve].
As for `Cc1nc2sc3c(c2c2nc(-c4ccco4)nn12)CCCC3`, the figure is 12.6 µM [rising, single point]; as for `O=C(NCCCN1CCN(Cc2ccccc2)CC1)C1CCN(S(=O)(=O)N2CCCC2)CC1`, 0.00316 µM [falling, full curve, poor fit]; as for `Cc1ccc2c(c1)cc(C)c1nnc(SCC(=O)NCc3ccco3)n12`, 15.8 µM [rising, single point].
As to `Cc1ccc(C)c(N(C)C(=O)COc2cc(=O)n(C)c3ccccc23)c1`, the AC50 is 20 µM [rising, single point].
As for `Cc1nc2cnc(N3CCOCC3)nc2n(CCc2ccccc2)c1=O`, the figure is 15.8 µM [rising, partial curve]; as for `CCn1c(COc2ccccc2)nnc1SCC(=O)C(C)(C)C`, 15.8 µM [rising, partial curve]; as for `O=c1c(-c2ccccc2)nc2cnc(Oc3cccc(Cl)c3)nc2n1C1CC1`, 10 µM [rising, single point].
The value for `Cc1cc(Nc2ccc(F)cc2C)n2ncnc2n1` was 25.1 µM [rising, single point]; that for `Cn1c(=O)c(-c2ccc(Cl)cc2)nc2cnc(Nc3ccccc3)nc21` was 12.6 µM [rising, partial curve]; that for `Cc1ccc(Cc2c(C)nc3nc(SCC(=O)NCc4ccco4)nn3c2C)cc1` was 15.8 µM [rising, partial curve].
As for `CCOC(=O)C1CCN(C(c2ccc(OC)c(OC)c2)c2sc3nc(C)nn3c2O)CC1` (stereo not drawn), the AC50 is 12.6 µM [rising, partial curve].
As for `Cc1ccc2cccc(S(=O)(=O)Nc3ccc4c(c3)OCO4)c2n1`, the figure is 20 µM [falling, single point]; as for `C1CCN(c2nc(N3CCCC3)nc(N3CCNCC3)n2)C1`, 25.1 µM [falling, single point].
As for `CCOC(=O)N1CCC(N2C(=O)c3ccccc3C2Nc2ccc3c(C)cc(=O)oc3c2)CC1` (stereo not drawn), the figure is 15.8 µM [rising, partial curve]; as for `Cc1ccc(-c2nn(C)c(=O)c3ccccc23)cc1CO`, 12.6 µM [rising, partial curve].
As for `COc1ccc2ccccc2c1C1CC(=O)N2CN(C3CCCCC3)CSC2=C1C#N` (stereo not drawn), the figure is 10 µM [falling, partial curve]; as for `COc1ccc2c(c1)C(=O)N(CCc1ccc(S(=O)(=O)NC(=O)NC3CCCCC3)cc1)C(=O)C2(C)C`, 7.94 µM [rising, partial curve]; as for `Cc1ccc2oc(=O)c3cc(C(=O)N4CCN(c5ncccn5)CC4)sc3c2c1`, 3.16 µM [rising, single point].
With `N#CC1=C2C=CC=CN2CC1=O`, the AC50 is 25.1 µM [rising, partial curve, poor fit].
As for `COc1ccc2[nH]cc(CCNc3nc(-c4cccc(NS(C)(=O)=O)c4)nc4ccccc34)c2c1`, the figure is 10 µM [falling, single point]; as for `Cc1cc(C)n(-c2cc(-n3nc(C)cc3C)ncn2)n1`, 0.316 µM [rising, full curve]; as for `C=CCn1c(SCC(=O)NC2CCS(=O)(=O)C2)nc2scc(C3CC3)c2c1=O` (stereo not drawn), 25.1 µM [rising, single point].
Consider `Cc1nc2cnc(N3CCOCC3)nc2n(Cc2cccs2)c1=O`, for which the AC50 was 2 µM [rising, full curve].
As for `Cn1c(=O)c2c(nc(CN3CCN(c4cccc(Cl)c4)CC3)n2CCc2ccccc2)n(C)c1=O`, the figure is 12.6 µM [rising, partial curve]; as for `COC(=O)CCc1c(C)c(C#N)c2nc3ccccc3n2c1N1CCCC1`, 12.6 µM [rising, partial curve]; as for `CCOC(=O)CSc1nnc(-c2ccc(S(=O)(=O)N3CCC(C)CC3)cc2)o1`, 25.1 µM [falling, single point].
`Cc1cc(N2CCN(c3ccccc3)CC2)nc(-c2ccccc2)n1`: the AC50 was 0.00794 µM [falling, full curve, poor fit].
As for `Cc1nc2c(C(=O)NCc3ccc4c(c3)OCO4)c[nH]n2c(=O)c1Cc1ccccc1F`, the figure is 20 µM [falling, single point].
As for `O=C(Oc1nsnc1N1CCOCC1)N(c1ccccc1)c1ccccc1`, the figure is 25.1 µM [rising, single point]; as for `CCOC(=O)C1=C(c2ccccc2)OC(N)=C(C#N)C1C(C)C` (stereo not drawn), 7.94 µM [rising, partial curve].
The value for `COc1cccc2cc(C(=O)NC(C)C3CCCO3)c(=O)oc12` (stereo not drawn) was 5.01 µM [falling, partial curve]; that for `O=C(OCc1ccc(F)cc1Cl)c1ccccn1` was 10 µM [falling, partial curve].

Source of the values: PubChem BioAssay AID662 (National Center for Advancing Translational Sciences (NCATS), 2007).
